PubChem BioAssay AID652259, Drosophila RNAi Screening Center – 2013
In all, the deposit lists about 22,000 reagents; shown is a random part of those with a known target gene and a result. Over the whole deposit, 233 (1.1%) got an active call. 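Light values are raw, unnormalised plate reads; the ratio scores behind the reporter calls were not deposited.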 Names joined by + are all predicted targets of the reagent. No sequences are given here. Not stated in the record: the amount of reagent, the time to read-out, the dose of the treatment.

Assay: 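Knock-downs that push a Wingless-driven reporter up or down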 (primary screen)
Cells: Drosophila clone 8 imaginal disc epithelial cells
Knock-down reagent: long dsRNA against Drosophila genes
Challenge: pathway stimulated by co-transfected Wingless expression plasmid
Read-out: 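Dual luciferase reads per well after Wingless plasmid stimulation: reporter firefly light and Renilla control light; activity is firefly divided by Renilla, a ratio not deposited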
Scale: firefly reporter light: higher = more Wg reporter light, before normalisation; Renilla control light: higher = more transfected or surviving cells
Call rule: 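a knock-down is a candidate when at least two out of four statistical tests show it departing from its plate mean; one test alone signals a weak candidate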
Meaning of the calls: active = candidate regulator (raises or lowers reporter); inactive = not a candidate

target gene | dsRNA | reporter change call, replicate 1 | firefly reporter light, replicate 1 | firefly reporter light, replicate 2 | Renilla control light, replicate 1 | Renilla control light, replicate 2 | outcome
Mi-2 + Su(Tpl) | DRSC09640 | – | 4323 | – | 1270 | – | inactive
RecQ5 | DRSC11266 | – | 4272 | – | 1708 | – | inactive
CG12691 | DRSC17880 | – | 19872 | – | 7507 | – | inactive
CG4709 | DRSC02772 | – | 7932 | – | 1788 | – | inactive
Rab35 | DRSC20691 | – | 2717 | 6731 | 1088 | 2827 | inactive
Lhr | DRSC06759 | – | 16486 | – | 4928 | – | inactive
Ir8a | DRSC17817 | – | 14688 | – | 6678 | – | inactive
Ir8a | DRSC17869 | – | 20955 | – | 8096 | – | inactive
Map205 | DRSC16732 | – | 2336 | 7939 | 504 | 1223 | inactive
CG32243 | DRSC08105 | – | 4700 | – | 2128 | – | inactive
Zip102B | DRSC17155 | – | 24528 | 7.50e5 | 22877 | 3.40e5 | inactive
CG32856 | DRSC13124 | – | 2685 | – | 946 | – | inactive
trh | DRSC08355 | – | 8573 | – | 4058 | – | inactive
trh | DRSC08739 | – | 5126 | – | 3939 | – | inactive
TwdlY | DRSC19153 | – | 5131 | 7.38e5 | 1874 | 3.18e5 | inactive
CG4563 | DRSC04474 | – | 3013 | 6812 | 546 | 2313 | inactive
CG12963 | DRSC05555 | – | 18764 | – | 11292 | – | inactive
CG12963 | DRSC06265 | – | 9191 | – | 3074 | – | inactive
Ctf4 | DRSC06380 | – | 10784 | – | 3056 | – | inactive
CG42262 (retired record) | DRSC17628 | – | 3111 | – | 1396 | – | inactive
CG42262 (retired record) | DRSC17974 | – | 15626 | – | 9713 | – | inactive
CG17258 | DRSC00495 | – | 4665 | 11793 | 2018 | 4658 | inactive
CG17258 | DRSC22709 | – | 8.78e5 | 8.61e5 | 4.40e5 | 1.53e5 | inactive
E2f1 | DRSC16655 | Wg reporter activity lowered | 38960 | – | 9274 | – | inactive
CR18275 | DRSC18151 | – | 27556 | – | 23840 | – | inactive
CG32053 | DRSC10683 | – | 4451 | – | 1975 | – | inactive
CG11828 | DRSC14394 | – | 11585 | – | 6560 | – | inactive
CG11828 | DRSC22580 | – | 8.28e5 | 8.01e5 | 3.21e5 | 2.75e5 | inactive
CG10628 | DRSC02080 | – | 2696 | 3396 | 585 | 1480 | inactive
CG7215 + Prx5 | DRSC16214 | – | 18065 | – | 4016 | – | inactive
CG7215 + Prx5 | DRSC16215 | – | 3588 | 8517 | 1376 | 1817 | inactive
ppk17 | DRSC02252 | – | 2924 | 7653 | 972 | 3147 | inactive
CG18467 | DRSC06758 | – | 7072 | – | 2770 | – | inactive
CG31013 | DRSC16542 | – | 7898 | – | 3005 | – | inactive
hebe | DRSC05192 | – | 19996 | – | 9223 | – | inactive
hebe | DRSC06605 | – | 12240 | – | 4128 | – | inactive
hebe | DRSC21614 | – | 7.72e5 | 7.47e5 | 3.81e5 | 3.52e5 | inactive
CG9328 | DRSC03203 | – | 10828 | – | 3635 | – | inactive
Yip1d1 | DRSC02166 | – | 3120 | 6442 | 1568 | 4778 | inactive
PolD2 | DRSC08147 | – | 12528 | – | 3776 | – | inactive
qsm | DRSC05896 | – | 14891 | – | 9354 | – | inactive
qsm | DRSC06393 | – | 3836 | – | 1840 | – | inactive
Grl36a | DRSC21748 | – | 4.64e5 | 5.57e5 | 2.28e5 | 2.11e5 | inactive
BBS4 | DRSC06352 | – | 5785 | – | 1517 | – | inactive
Rgk2 | DRSC06503 | – | 6293 | – | 2096 | – | inactive
Rgk2 | DRSC21651 | – | 6.28e5 | 7.45e5 | 4.60e5 | 3.78e5 | inactive
Tpi | DRSC16888 | – | 1904 | 3755 | 1063 | 1520 | inactive
CG11892 | DRSC14428 | – | 1452 | 4794 | 1076 | 647 | inactive
Cpr92F | DRSC15819 | – | 14962 | – | 4905 | – | inactive
CG34451 | DRSC09388 | – | 3552 | – | 1236 | – | inactive
CG34451 | DRSC09389 | – | 3158 | – | 1604 | – | inactive
Dora | DRSC19614 | – | 37808 | – | 6512 | – | inactive
Dora | DRSC19781 | – | 26769 | – | 1056 | – | inactive
Dora | DRSC20034 | – | 19139 | – | 10154 | – | inactive
Dora | DRSC20035 | – | 19799 | – | 5498 | – | inactive
CG14137 | DRSC10142 | – | 10732 | – | 2725 | – | inactive
NimA | DRSC01353 | – | 12965 | – | 7395 | – | inactive
NimA | DRSC22170 | – | 7.39e5 | 7.81e5 | 3.07e5 | 2.85e5 | inactive
ncm | DRSC02179 | – | 10114 | – | 1770 | – | inactive
park + Targ3 | DRSC11617 | – | 9804 | – | 4121 | – | inactive
Os-C | DRSC16778 | – | 18755 | – | 6252 | – | inactive
CG5787 | DRSC02895 | – | 9922 | – | 2787 | – | inactive
disco | DRSC20323 | – | 22624 | – | 11761 | – | inactive
Fst | DRSC16491 | – | 8404 | – | 3137 | – | inactive
RIOK1 | DRSC09853 | – | 11392 | – | 3912 | – | inactive
Shawl | DRSC02209 | – | 2133 | 5411 | 1258 | 3155 | inactive
Shawl | DRSC02748 | – | 5031 | 7398 | 1500 | 4090 | inactive
Nelf-E | DRSC10567 | – | 2153 | 6241 | 1186 | 2985 | inactive
CG16772 | DRSC02516 | – | 3309 | 11168 | 820 | 3589 | inactive
CG30196 | DRSC04156 | – | 2865 | 10499 | 720 | 4227 | inactive
CG2059 | DRSC18203 | – | 18839 | – | 9837 | – | inactive
side-VII | DRSC14578 | – | 8133 | – | 3657 | – | inactive
klu | DRSC11357 | – | 5335 | – | 2128 | – | inactive

Limited to “firefly reporter light, replicate 1”, for 10 of the entries above:
CG17258 [DRSC22709]: 8.78e5
E2f1 [DRSC16655]: 38960
CR18275 [DRSC18151]: 27556
CG32053 [DRSC10683]: 4451
CG11828 [DRSC14394]: 11585
CG11828 [DRSC22580]: 8.28e5
CG10628 [DRSC02080]: 2696
CG7215 + Prx5 [DRSC16214]: 18065
CG7215 + Prx5 [DRSC16215]: 3588
ppk17 [DRSC02252]: 2924
